Test results: PubChem BioAssay AID540276 (National Center for Advancing Translational Sciences (NCATS), 2011)
Screen size: about 300,000 compounds; about 5,400 (1.8%) were called active. Inconclusive results, whose numbers are uncertain, are shown with a selection of clear calls. The call rests on the fitted dose curve; tested in HEK293 cells. Potencies beside an inconclusive call are fits to weak or partial responses and may not hold up.

Test: qHTS for inhibitors of binding or entry into cells for Marburg Virus
Conditions: Marburg virus pseudotyped entry inhibition, cell reporter; activity change, negative = inhibition: at 37.8 µM (top of the series) unless noted
On the % scale 0 is the no-effect control and ±100 the full control effect; potency means the concentration at half of the fitted maximal effect.

Structure (SMILES)	Potency	activity change, negative = inhibition
Cc1ccc(S(=O)(=O)Nc2ccc(C(=O)Nc3cc(C)on3)cc2)cc1	inconclusive: 18.3 µM [inhibitor, single point]	
COc1ccc(-c2cc(C(F)F)n3ncc(C(=O)N4CCN(C)CC4)c3n2)cc1		inactive: -10%
CCOC(=O)COc1ccc(C2CC(C)=NN2c2ccccc2)cc1 (stereo unspecified)	inconclusive: 7.08 µM [inhibitor, full curve, poor fit]	
O=C(CNCc1cccs1)Nc1ccc(OC(F)(F)F)cc1	inconclusive: 20 µM [activator, partial curve, poor fit]	
CN1CCc2cc(O)cc3c2C1Cc1ccc(O)c(O)c1-3 (stereo unspecified)	inconclusive: 11.2 µM [inhibitor, partial curve]	
CC1=C(C#N)C(Nc2ccc(C)cn2)(C(F)(F)F)C(=O)N1 (stereo unspecified)	inconclusive: 2.06 µM [inhibitor, partial curve, poor fit]	
CC(=O)c1ccc(N2CCN(C(=O)C(=O)c3cn(CC(=O)N4CCCCCC4)c4ccccc34)CC2)cc1		inactive: -15%
CCCCN=Cc1sc2ccc(OCC)cc2c1O		inactive: 1.4%
O=c1[nH]c(C2CCN(S(=O)(=O)/C=C/c3ccccc3)CC2)nc2c1nnn2Cc1ccc(F)cc1	active: 7.94 µM	
Cc1ccc(Cn2c(C)c3cnn(CC(=O)N4CCN(c5cc(C)ccc5C)CC4)c(=O)c3c2C)cc1	inconclusive: 0.891 µM [inhibitor, full curve, poor fit]	
COc1cccc(-n2c(C)nc3c(cnn3-c3ccc(C)c(C)c3)c2=O)c1	inconclusive: 6.31 µM [activator, single point]	
CC(=O)Nc1ccc(Oc2ccc([N+](=O)[O-])cc2Cl)cc1	inconclusive: 6.31 µM [inhibitor, partial curve, poor fit]	
O=C(Nc1nc2ccc(S(=O)(=O)N3CCCCC3)cc2s1)C1CCCO1 (stereo unspecified)		inactive: -6.69% [at 46.1 µM]
COCCNC(=O)/C(C#N)=C/c1cc(C)n(C2CCCCC2)c1C	inconclusive: 11.2 µM [inhibitor, single point]	
COc1cccc(-c2cc(=O)[nH][nH]2)c1		inactive: 7.03% [at 46.1 µM]
C=CCn1c(SCC(=O)N2CCCCCC2)nc2ccccc2c1=O		inactive: -12.1% [at 46.1 µM]
COC(=O)c1ccccc1NC(=O)CN(c1ccc(OC)cc1)S(C)(=O)=O		inactive: -20.4%
CCOc1ccccc1C(=O)N(Cc1ccccc1)Cc1cc2cc3c(cc2[nH]c1=O)OCCO3	inconclusive: 29.1 µM [inhibitor, single point]	
COc1ccccc1C(=O)Nc1ccc2oc(-c3ccc(F)cc3)nc2c1	inconclusive: 0.651 µM [inhibitor, single point]	

Structure (SMILES)	Potency	activity change, negative = inhibition
Cc1ccc(O)c(C(=O)CC(=O)c2cccc(F)c2)c1	inconclusive: 35.5 µM [inhibitor, single point]	
CC(Sc1nnc(NC2CCCCC2)s1)C(=O)N1CCOCC1 (stereo unspecified)		inactive: 6.69%
CCOc1ccccc1N(C(=O)c1ccco1)C(C(=O)NC1CCCC1)c1cccs1 (stereo unspecified)	inconclusive: 5.62 µM [inhibitor, full curve, poor fit]	
CS(=O)(=O)c1cnc(-c2ccccc2)nc1-c1ccc(Cl)c(Cl)c1	inconclusive: 29.1 µM [inhibitor, partial curve, poor fit]	
CS(=O)(=O)c1ccc(Cl)c(NC(=O)COC(=O)c2cccc(S(=O)(=O)N3CCCC3)c2)c1		inactive: 13.1% [at 46.1 µM]
COc1ccccc1CNc1ncccn1	inconclusive: 35.5 µM [activator, single point]	
CCOCCCNC(=O)C(c1ccc(OC)cc1)N(Cc1cccs1)C(=O)CNC(C)=O (stereo unspecified)	inconclusive: 12.6 µM [activator, single point]	
C[N+]1(CC2COC(c3ccco3)O2)CCCCC1 (stereo unspecified)	inconclusive: 2.24 µM [activator, full curve]	
O=c1nc(/C=C/c2ccc(O)c(O)c2)oc2ccccc12	inconclusive: 11.2 µM [inhibitor, partial curve, poor fit]	
O=C(c1ccc(OC2CCN(CCCc3ccccc3)CC2)cc1)N1CCCC1	inconclusive: 8.91 µM [inhibitor, partial curve, poor fit]	
CCn1c2ccccc2c2cc(Nc3cc(C)nc4ncnn34)ccc21	inconclusive: 5.17 µM [inhibitor, partial curve, poor fit]	
Cc1ccccc1-c1nnn(CC(=O)c2ccc(S(=O)(=O)N3CCCC3)cc2)n1	inconclusive: 25.9 µM [inhibitor, partial curve, poor fit]	
CC(OC(=O)CCCOc1ccccc1)C(=O)NC(N)=O (stereo unspecified)	inconclusive: 0.651 µM [inhibitor, full curve, poor fit]	
COc1ccc(-c2[nH]ncc2CN2CCN(C(=O)c3cccs3)CC2)c(F)c1	inconclusive: 7.94 µM [inhibitor, partial curve, poor fit]	
Cc1ccccc1N=C1c2cc([N+](=O)[O-])ccc2-c2ncccc21		inactive: -9.17%
Cc1ccc(NC(=O)CSCC(=O)Nc2cc(Cl)ccc2N2CCOCC2)cc1	inconclusive: 35.5 µM [inhibitor, single point]	
CN(C)C(CNC(=O)Cc1cccc(C(F)(F)F)c1)c1ccco1 (stereo unspecified)		inactive: 3.56% [at 46.1 µM]
COC(=O)C/C=C\[C@@H](C)[C@@H](/C=N\OC[C@@H](O)COCc1ccco1)NS(=O)(=O)c1ccc(C)cc1		inactive: 20.9% [at 14.2 µM]
CCc1c(C)sc(NC(=O)/C=C/c2ccc3c(c2)OCO3)c1C(=O)OC		inactive: -15.3%

Fetched by structure from the list above, 2 records:
Structure (SMILES)	Potency	activity change, negative = inhibition
CCn1c2ccccc2c2cc(Nc3cc(C)nc4ncnn34)ccc21	inconclusive: 5.17 µM [inhibitor, partial curve, poor fit]	
Cc1ccccc1-c1nnn(CC(=O)c2ccc(S(=O)(=O)N3CCCC3)cc2)n1	inconclusive: 25.9 µM [inhibitor, partial curve, poor fit]	

Taken from above:
For Potency, `CCn1c2ccccc2c2cc(Nc3cc(C)nc4ncnn34)ccc21` is entered as inconclusive: 5.17 µM [inhibitor, partial curve, poor fit]
For activity change, negative = inhibition, `Cc1ccccc1N=C1c2cc([N+](=O)[O-])ccc2-c2ncccc21` is entered as inactive: -9.17%

(list continues)

Structure (SMILES)	Potency	activity change, negative = inhibition
Cc1nc(-c2ccccn2)nc(SCC(=O)c2ccccc2)c1Cl	inconclusive: 35.5 µM [inhibitor, single point]	
COc1cc(C)ccc1OCc1cc(C(=O)N(Cc2c(C)nn(C)c2C)C2CC2)no1	inconclusive: 20 µM [inhibitor, partial curve, poor fit]	
CCN(CC(=O)NCc1cccs1)C(=O)CCCOc1ccc(C(C)(C)C)cc1	inconclusive: 35.5 µM [inhibitor, single point]	
O=C(CCN1C(=O)c2ccccc2S1(=O)=O)NCc1ccccc1Cl		inactive: 8.96%
COc1cc(C)ccc1OCCOc1c(C)cccc1Cl		inactive: 9.71%
CCOc1ccccc1CNC(=O)CCc1cn(C)c2ccccc12	active: 6.31 µM	
Cc1csc(NC(=O)CSc2nc3ccccc3c3c2CCCC3)n1	inconclusive: 35.5 µM [inhibitor, single point]	
CCSc1n[nH]c(=S)s1	inconclusive: 35.5 µM [inhibitor, single point]	
Cc1ccc(O)c(NC(=O)c2noc3c2CCc2ccccc2-3)c1	inconclusive: 28.2 µM [inhibitor, single point]	
COC(=O)c1ccc(CSc2nnc(C)n2N)o1	inconclusive: 1.41 µM [activator, partial curve, poor fit]	
O=C(Nc1cccc(Cl)c1)N1N=CCC1c1ccccc1 (stereo unspecified)	inconclusive: 10 µM [inhibitor, partial curve, poor fit]	
CN(Cc1ccccc1)C(=O)c1ccccc1NC(=O)c1ccco1		inactive: 3.01%
Cc1onc(-c2c(Cl)cccc2Cl)c1C(=O)N1CCc2ccccc2C1	inconclusive: 1.78 µM [inhibitor, partial curve, poor fit]	
CCCCn1c(SC(C)C(=O)NCC2CCCO2)nc2cc(C(=O)OC)ccc2c1=O (stereo unspecified)		inactive: -10.4%
Cc1nc(CC(=O)Nc2ccc(C(N)=O)cc2)cs1	inconclusive: 0.631 µM [inhibitor, full curve, poor fit]	
CCCOc1ccc(CC2C(=O)Nc3ccc(Br)cc32)cc1 (stereo unspecified)		inactive: 7.72% [at 46.1 µM]
CCCC12CN3CC(CCC)(CN(C1)C3c1c[nH]c3ccc(OC)cc13)C2=O (stereo unspecified)	inconclusive: 3.55 µM [inhibitor, single point]	
Cc1ccc(-c2[nH]ncc2CNCCc2cnn(-c3ccccc3)c2)cc1C	active: 8.91 µM	
